No constants are given. Whether binding was seen depends on the method and setting. In cells and extracts the contact can be indirect. Here binding means that the protein was enriched with, or labelled near, the bait; the list need not be complete. For some of these results: Tags and fused reporters may be left off the sequences shown.
Tests used:
Experiment in all cases: affinity purification with mass spectrometry
[1] = molecular target: T1, FLAG-ADNP (bait of the PD-MS) (UniProt Q9H2P0)
T1 sequence: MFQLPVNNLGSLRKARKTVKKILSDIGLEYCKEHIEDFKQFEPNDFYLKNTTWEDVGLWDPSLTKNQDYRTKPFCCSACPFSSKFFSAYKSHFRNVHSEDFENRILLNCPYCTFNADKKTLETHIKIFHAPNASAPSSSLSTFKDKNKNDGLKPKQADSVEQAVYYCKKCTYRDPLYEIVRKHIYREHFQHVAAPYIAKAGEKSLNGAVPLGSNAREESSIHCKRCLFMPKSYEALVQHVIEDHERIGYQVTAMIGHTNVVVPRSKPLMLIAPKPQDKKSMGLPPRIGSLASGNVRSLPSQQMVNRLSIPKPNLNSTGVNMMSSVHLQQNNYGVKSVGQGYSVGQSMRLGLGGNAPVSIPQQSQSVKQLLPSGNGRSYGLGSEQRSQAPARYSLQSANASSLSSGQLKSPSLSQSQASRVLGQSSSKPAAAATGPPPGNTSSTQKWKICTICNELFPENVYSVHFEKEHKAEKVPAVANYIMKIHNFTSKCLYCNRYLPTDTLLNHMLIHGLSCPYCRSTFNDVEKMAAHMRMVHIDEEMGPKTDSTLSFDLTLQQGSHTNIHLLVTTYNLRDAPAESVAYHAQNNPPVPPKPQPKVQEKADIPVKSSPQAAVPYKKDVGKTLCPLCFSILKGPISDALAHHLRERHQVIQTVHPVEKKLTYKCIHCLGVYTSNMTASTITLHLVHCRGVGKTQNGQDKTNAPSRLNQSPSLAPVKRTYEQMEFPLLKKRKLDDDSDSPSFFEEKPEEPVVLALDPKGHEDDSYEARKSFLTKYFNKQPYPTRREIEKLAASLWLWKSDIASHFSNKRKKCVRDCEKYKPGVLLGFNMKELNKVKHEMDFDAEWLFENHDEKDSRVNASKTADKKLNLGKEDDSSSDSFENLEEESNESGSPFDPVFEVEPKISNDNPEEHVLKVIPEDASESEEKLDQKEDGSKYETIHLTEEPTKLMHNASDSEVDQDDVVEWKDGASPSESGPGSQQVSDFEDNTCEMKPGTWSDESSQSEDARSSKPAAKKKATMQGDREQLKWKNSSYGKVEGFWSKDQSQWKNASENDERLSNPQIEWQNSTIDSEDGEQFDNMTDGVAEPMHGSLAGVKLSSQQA

By UniProt entry, the sequences of proteins in these tests, tags left out.
UniProt Q8WXI9: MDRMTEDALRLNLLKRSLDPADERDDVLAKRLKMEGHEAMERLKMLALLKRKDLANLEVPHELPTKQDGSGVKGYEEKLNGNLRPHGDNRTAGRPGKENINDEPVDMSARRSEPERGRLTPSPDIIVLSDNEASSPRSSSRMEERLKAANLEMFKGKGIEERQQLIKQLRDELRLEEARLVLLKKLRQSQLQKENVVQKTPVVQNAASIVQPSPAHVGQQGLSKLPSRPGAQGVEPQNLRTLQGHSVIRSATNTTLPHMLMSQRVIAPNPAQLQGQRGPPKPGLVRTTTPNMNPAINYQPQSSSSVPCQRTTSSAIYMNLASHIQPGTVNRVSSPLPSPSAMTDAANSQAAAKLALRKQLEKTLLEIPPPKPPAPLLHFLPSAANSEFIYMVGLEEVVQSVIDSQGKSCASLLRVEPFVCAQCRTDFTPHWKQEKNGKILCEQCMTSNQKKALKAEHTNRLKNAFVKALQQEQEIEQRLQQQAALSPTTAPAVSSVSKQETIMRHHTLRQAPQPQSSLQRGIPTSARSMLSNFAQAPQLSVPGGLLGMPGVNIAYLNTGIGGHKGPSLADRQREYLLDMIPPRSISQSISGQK
UniProt Q9UBB5: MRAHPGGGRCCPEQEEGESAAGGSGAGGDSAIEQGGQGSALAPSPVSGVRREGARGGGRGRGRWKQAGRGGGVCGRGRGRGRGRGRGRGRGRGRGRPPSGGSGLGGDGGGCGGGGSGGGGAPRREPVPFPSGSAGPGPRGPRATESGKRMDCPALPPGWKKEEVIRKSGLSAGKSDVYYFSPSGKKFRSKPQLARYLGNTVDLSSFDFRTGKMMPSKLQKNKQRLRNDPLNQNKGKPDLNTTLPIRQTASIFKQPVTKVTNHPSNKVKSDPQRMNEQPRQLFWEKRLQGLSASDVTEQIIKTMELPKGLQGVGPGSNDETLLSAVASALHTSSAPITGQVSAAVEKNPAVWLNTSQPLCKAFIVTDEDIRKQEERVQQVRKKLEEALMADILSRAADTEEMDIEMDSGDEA
UniProt Q13185: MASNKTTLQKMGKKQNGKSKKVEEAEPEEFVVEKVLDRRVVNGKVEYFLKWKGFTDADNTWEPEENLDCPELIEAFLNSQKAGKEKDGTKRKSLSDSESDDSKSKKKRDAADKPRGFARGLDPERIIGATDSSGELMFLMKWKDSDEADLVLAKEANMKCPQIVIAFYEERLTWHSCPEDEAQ
UniProt Q13227: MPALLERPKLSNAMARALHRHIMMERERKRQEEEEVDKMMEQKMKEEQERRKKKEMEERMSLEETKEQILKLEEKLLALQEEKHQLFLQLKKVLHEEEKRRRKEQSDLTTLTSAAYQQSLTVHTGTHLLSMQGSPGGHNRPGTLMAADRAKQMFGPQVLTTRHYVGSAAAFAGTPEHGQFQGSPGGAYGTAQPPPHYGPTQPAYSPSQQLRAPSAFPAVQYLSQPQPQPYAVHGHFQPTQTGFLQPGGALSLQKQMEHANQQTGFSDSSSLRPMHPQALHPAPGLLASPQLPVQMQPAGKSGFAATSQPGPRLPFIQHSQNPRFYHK
UniProt Q92769: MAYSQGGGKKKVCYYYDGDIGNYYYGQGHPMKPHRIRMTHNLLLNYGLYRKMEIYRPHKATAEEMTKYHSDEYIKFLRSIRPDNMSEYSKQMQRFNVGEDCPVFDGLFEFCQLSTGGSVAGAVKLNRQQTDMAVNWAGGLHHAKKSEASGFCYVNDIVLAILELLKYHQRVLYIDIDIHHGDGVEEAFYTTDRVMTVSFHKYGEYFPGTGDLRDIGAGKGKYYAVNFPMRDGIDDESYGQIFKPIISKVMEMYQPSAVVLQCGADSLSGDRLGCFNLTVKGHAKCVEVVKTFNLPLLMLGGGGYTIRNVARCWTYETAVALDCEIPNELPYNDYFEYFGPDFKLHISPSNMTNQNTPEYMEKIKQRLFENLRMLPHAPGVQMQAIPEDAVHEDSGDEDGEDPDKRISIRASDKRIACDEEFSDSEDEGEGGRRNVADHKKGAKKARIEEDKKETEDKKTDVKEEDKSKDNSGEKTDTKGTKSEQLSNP
UniProt O15379: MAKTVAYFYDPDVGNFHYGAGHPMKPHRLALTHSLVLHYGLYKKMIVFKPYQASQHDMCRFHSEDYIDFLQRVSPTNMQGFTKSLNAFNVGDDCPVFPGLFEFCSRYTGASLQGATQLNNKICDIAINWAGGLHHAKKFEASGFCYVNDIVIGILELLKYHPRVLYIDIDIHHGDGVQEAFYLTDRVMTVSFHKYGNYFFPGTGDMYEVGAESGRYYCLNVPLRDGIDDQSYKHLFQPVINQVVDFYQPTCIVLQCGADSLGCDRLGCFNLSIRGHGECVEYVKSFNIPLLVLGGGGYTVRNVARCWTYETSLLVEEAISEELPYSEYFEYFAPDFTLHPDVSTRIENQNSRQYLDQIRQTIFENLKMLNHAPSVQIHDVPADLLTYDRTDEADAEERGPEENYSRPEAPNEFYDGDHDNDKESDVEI
UniProt P06732: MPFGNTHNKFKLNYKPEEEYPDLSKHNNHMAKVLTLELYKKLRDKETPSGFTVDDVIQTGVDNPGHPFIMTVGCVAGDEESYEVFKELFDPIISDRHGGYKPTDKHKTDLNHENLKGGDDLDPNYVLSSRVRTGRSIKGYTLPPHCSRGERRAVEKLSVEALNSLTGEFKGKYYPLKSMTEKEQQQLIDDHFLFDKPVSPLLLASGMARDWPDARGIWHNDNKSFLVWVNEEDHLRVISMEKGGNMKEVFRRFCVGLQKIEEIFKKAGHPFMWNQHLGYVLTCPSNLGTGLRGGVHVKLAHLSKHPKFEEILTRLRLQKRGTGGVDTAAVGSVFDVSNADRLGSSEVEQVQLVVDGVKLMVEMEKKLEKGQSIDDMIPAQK
UniProt Q99873: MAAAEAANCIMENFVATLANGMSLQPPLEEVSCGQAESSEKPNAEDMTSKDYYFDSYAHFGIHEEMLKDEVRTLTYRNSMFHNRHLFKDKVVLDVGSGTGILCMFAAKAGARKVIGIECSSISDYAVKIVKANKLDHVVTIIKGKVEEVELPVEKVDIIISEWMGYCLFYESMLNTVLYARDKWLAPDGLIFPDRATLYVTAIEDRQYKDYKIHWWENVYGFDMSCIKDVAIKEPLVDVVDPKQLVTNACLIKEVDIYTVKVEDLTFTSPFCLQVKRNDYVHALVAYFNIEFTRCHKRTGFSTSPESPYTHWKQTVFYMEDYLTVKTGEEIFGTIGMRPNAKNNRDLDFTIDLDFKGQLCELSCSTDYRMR
UniProt O60264: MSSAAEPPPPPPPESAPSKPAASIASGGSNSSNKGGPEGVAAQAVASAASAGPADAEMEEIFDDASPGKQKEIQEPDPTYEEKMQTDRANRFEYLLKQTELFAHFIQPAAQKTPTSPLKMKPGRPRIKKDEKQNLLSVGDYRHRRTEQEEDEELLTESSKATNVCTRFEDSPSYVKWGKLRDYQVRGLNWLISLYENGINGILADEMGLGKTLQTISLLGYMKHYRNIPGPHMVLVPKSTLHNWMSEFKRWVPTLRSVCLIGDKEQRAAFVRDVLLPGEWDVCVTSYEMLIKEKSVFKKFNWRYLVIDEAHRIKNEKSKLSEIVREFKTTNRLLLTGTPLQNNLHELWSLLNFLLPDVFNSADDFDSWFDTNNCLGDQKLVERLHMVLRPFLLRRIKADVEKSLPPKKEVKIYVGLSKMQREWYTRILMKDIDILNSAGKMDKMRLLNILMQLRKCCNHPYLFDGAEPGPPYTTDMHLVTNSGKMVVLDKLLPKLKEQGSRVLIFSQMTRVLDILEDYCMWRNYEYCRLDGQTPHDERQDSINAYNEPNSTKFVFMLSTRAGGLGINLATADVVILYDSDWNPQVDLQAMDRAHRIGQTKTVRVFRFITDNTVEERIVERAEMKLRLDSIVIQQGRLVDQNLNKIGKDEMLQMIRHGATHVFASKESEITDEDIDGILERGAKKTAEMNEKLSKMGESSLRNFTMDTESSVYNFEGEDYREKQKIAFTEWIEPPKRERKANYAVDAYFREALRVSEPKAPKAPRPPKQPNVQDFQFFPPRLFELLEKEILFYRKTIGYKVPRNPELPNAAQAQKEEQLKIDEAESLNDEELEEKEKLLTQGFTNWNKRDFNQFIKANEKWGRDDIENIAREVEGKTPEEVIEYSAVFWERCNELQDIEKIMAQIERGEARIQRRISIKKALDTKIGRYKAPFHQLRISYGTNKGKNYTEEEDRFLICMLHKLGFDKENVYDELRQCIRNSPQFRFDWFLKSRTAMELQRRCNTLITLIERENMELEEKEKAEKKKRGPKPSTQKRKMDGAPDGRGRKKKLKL
UniProt Q5VZL5: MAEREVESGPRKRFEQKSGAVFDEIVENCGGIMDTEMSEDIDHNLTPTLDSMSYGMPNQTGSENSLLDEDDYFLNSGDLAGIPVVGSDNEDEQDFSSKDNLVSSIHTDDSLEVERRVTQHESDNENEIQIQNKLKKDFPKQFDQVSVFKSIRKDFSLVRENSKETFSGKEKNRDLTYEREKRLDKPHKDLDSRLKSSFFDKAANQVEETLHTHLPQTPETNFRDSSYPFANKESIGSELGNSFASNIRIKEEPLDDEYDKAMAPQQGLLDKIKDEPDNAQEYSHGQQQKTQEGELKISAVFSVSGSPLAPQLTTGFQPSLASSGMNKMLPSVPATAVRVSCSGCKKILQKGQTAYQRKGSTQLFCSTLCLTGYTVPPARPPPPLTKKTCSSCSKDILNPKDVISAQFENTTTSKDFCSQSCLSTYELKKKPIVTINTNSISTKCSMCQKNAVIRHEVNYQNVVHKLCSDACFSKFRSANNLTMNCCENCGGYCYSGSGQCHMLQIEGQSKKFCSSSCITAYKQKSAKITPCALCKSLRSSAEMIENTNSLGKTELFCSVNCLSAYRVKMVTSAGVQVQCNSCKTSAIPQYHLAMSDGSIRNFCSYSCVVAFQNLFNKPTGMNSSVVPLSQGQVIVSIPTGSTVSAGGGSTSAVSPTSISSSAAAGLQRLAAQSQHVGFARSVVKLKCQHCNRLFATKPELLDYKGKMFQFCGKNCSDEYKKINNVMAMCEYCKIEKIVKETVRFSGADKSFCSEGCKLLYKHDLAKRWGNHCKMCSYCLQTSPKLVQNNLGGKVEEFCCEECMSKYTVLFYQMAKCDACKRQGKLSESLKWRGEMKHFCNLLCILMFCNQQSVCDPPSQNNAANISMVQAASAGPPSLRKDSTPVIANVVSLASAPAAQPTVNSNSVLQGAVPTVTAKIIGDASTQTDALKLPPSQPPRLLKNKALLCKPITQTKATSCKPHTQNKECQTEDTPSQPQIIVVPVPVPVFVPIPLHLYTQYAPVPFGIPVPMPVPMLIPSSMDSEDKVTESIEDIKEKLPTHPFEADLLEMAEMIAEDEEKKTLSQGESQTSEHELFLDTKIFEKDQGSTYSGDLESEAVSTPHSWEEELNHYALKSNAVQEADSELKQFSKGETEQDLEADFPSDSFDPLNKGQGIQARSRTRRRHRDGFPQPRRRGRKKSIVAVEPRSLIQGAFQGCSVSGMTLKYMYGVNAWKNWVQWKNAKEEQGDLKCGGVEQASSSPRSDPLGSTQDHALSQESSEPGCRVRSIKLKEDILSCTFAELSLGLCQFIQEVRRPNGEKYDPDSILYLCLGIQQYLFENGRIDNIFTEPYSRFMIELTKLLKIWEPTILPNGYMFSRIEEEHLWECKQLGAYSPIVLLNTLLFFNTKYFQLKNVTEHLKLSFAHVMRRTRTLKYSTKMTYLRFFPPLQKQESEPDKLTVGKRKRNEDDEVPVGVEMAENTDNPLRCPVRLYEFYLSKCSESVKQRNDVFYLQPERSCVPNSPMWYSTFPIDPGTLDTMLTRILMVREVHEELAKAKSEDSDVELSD

FLAG-CDK2AP1 = molecular target: T2, FLAG-CDK2AP1 (UniProt O14519)
T2 sequence: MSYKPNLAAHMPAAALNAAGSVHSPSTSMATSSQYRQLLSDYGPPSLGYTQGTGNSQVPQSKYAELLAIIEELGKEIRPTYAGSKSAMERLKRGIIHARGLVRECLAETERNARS

[2] = molecular target: FLAG-GATAD2B (full-length) (UniProt Q8WXI9)
FLAG-MBD2a = FLAG-MBD2a (UniProt Q9UBB5)

With CBX3/HP1γ (from UniProt Q13185 1-183) the binding [1] was “binds”.

GSP2 (from UniProt Q13227 1-327) was tested, and the binding (FLAG-CDK2AP1) was “binds”.

In the case of “HDAC2 (from UniProt Q92769 1-488) (enzyme)”, the binding (FLAG-CDK2AP1) is reported as “binds”.

“HDAC3 (from UniProt O15379 1-428) (enzyme)” was tested, and the binding (FLAG-CDK2AP1) was “binds”.

KCRM (from UniProt P06732 1-381) was tested, and the binding [2] was “binds”.

In the case of NCOR1 (from UniProt O75376 1-2440), the binding (FLAG-CDK2AP1) is reported as “binds”.

With “PRMT1 (from UniProt Q99873 1-371) (enzyme)” the binding (FLAG-MBD2a) was “binds”.

In the case of SMARCA4 (from UniProt P51532 1-1647), the binding (FLAG-MBD2a) is reported as “binds”.

For SMARCA5 (from UniProt O60264 1-1052), the binding (FLAG-MBD2a) was “binds”.

In the case of ZMYM4 (from UniProt Q5VZL5 1-1548), the binding [1] is reported as “binds”.

— article doi:10.1101/2021.01.27.428018
